Measured values: US20080227220A1, “Lateral Flow Binding Assay” (priority 2004, published 2008)

System: antibiotic binding protein (PBP)
Assay: Lateral flow test strip for detection of β-lactams in milk (sequential assay)
Design: species or system Bacillus stearothermophilus
Conditions: milk sample 0.1 mL; 5 min then 10 min incubation at 64° C.; capture line vs reference line read visually

**Q.** With `CC(=O)OCC1=C(C(=O)O)N2C(=O)[C@@H](NC(=O)CSc3ccncc3)[C@H]2SC1` [Cephapirin, cephapirin] as the compound, how does the Sensitivity read?
**A.** 4 ppb
